In the supplement of paper PMC7024190:
Structures can show the parent of a compound that is named as a salt. The list shows a part of the results. This data set is noisy: repeats of one test often differ as much as different tests do.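 Human embryonic kidney cells were transiently transfected with a plasmid bearing a Renilla luciferase gene under the HSV-TK promoter. This first-round screen tests roughly ten thousand compounds for ones that increase reporter output.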

tested on: HEK 293FT; test: log relative Renilla luciferase luminescence (reporter expression vs reference, reference not stated) (log (base not stated)); higher = higher recombinant reporter expression; settings: 10 µM; time after transfection 48 h

| SMILES | log |
| --- | --- |
| CN(C)CCN(Cc1cccs1)c1ccccn1 [methapyrilene hydrochloride] | -0.0656 |
| COc1ccc2c(c1)OCc1c-2oc2cc(OC)ccc12 [dehydrovariabilin] | 0.0957 |
| COc1ccc([C@H]2COc3c(ccc(O)c3OC)C2)c(OC)c1O [duartin (-)] | 0.124 |
| NCCC[C@H](N)C(=O)O [ornithine hydrochloride] | 0.116 |
| NC(=O)N1c2ccccc2C=Cc2ccccc21 [carbamazepine] | -0.206 |
| COc1c2ccoc2nc2c(OC)c(OCC(O)C(C)(C)O)ccc12 (centres undefined) [evoxine] | 0.148 |
| CC[C@H]1OC(=O)[C@H](C)[C@@H](O[C@H]2C[C@@](C)(OC)[C@@H](O)[C@H](C)O2)[C@H](C)[C@@H](O[C@@H]2O[C@H](C)C[C@H](N(C)C)[C@H]2O)[C@](C)(O)C[C@@H](C)/C(=N\OCOCCOC)[C@H](C)[C@@H](O)[C@]1(C)O [roxithromycin] | 0.0881 |
| O=C([O-])[C@H]1/C(=C/CO)O[C@@H]2CC(=O)N21.[Li+] [clavulanate lithium] | -0.0849 |
| CC(=O)N[C@@H](CC(C)C)C(=O)O [acetyl-l-leucine] | -0.0941 |
| Nc1nc(=O)c2nc(CNc3ccc(C(=O)N[C@@H](CCC(=O)O)C(=O)O)cc3)cnc2[nH]1 [folic acid] | -0.0435 |
| C=CC[S+]([O-])C[C@H](N)C(=O)O (mixture of isomers) [l(+/-)-alliin] | 0.04 |
| Nc1nc(Cl)nc2c1ncn2[C@@H]1O[C@H](CO)[C@@H](O)[C@@H]1F [clofarabine] | -0.524 |
| COc1cc2ccc(=O)oc2c(OC)c1OC [fraxidin methyl ether] | -0.0389 |
| O=C1CN2Cc3c(ccc(Cl)c3Cl)N=C2N1 [anagrelide hydrochloride] | 0.0133 |
| CC(C)NCC(O)COc1ccc(COCCOC(C)C)cc1 (centres undefined) [bisoprolol fumarate] | 0.0513 |
| Nc1nc(=S)c2ncn([C@@H]3O[C@H](CO)[C@@H](O)[C@H]3O)c2[nH]1 [thioguanosine] | -0.112 |
| C[C@@]12CCc3occc3[C@H]1CC[C@@]13C[C@@H](CC[C@H]12)[C@@](O)(CO)C3 [cafestol] | 0.168 |
| CO/N=C(\C(=O)N[C@@H]1C(=O)N2C(C(=O)O)=C(CSc3nc(=O)c(O)nn3C)CS[C@H]12)c1csc(N)n1 [ceftriaxone sodium trihydrate] | -0.0348 |
| O=C(O)CS [sodium thioglycolate] | 0.0412 |
| NC1(C(=O)O)CCCC1 [cycloleucine] | 0.101 |
| NCCCC[C@H](N[C@@H](CCc1ccccc1)C(=O)O)C(=O)N1CCC[C@H]1C(=O)O [lisinopril] | -0.0112 |
| CC(C)(C)NC[C@H](O)COc1nsnc1N1CCOCC1 [timolol maleate] | 0.083 |
| C[C@]12CCC(=O)C=C1CC[C@@H]1[C@@H]2[C@@H](O)C[C@@]2(C)[C@H]1CC[C@]2(O)C(=O)COC(=O)CCC(=O)O [hydrocortisone hemisuccinate] | -0.0162 |
| CCOC(=O)[C@H](CCc1ccccc1)N[C@H]1CCc2ccccc2N(CC(=O)O)C1=O [benazepril hydrochloride] | 0.0992 |
| COC1=C(OC)C(=O)C(CCCCCCCCCCO)=C(C)C1=O [idebenone] | -0.14 |

| SMILES | log |
| --- | --- |
| COc1cc(-c2coc3cc(O)c(OC)c(O)c3c2=O)cc(O)c1OC [irigenin] | 0.0481 |
| CCOC(=O)OC(C)OC(=O)[C@@H]1N2C(=O)[C@@H](NC(=O)[C@H](N)c3ccccc3)[C@H]2SC1(C)C (some centres undefined) [bacampicillin hydrochloride] | 0.0585 |
| COc1ccc(CN(CCN(C)C)c2ccccn2)cc1 [pyrilamine maleate] | -0.00743 |
| CCCNC(C)C(=O)Nc1ccccc1C (centres undefined) [prilocaine hydrochloride] | 0.156 |
| CC(COc1ccccc1)N(CCCl)Cc1ccccc1 (centres undefined) [phenoxybenzamine hydrochloride] | 0.0507 |
| Nc1ncn([C@@H]2O[C@H](CO)[C@@H](O)[C@H]2O)c(=O)n1 [azacitidine] | -0.25 |
| CC(=O)c1ccc(S(=O)(=O)NC(=O)NC2CCCCC2)cc1 [acetohexamide] | 0.256 |
| O=C(NCc1ccccc1)OCCO [buramate] | -0.112 |
| Cc1cc(=O)oc2cc(O)ccc12 [hymechrome] | 0.0299 |
| Cc1nc2ccccc2n1Cc1ccc(Cl)cc1 [chlormidazole] | -1.43 |
| Cn1c(=O)c2nc[nH]c2n(C)c1=O [theophylline] | 0.0765 |
| C=C1c2cccc(O)c2C(=O)C2=C(O)[C@]3(O)C(=O)C(C(N)=O)=C(O)[C@@H](N(C)C)[C@@H]3[C@@H](O)[C@H]12 [methacycline hydrochloride] | -0.0128 |
| c1ccc(C2CN3CCSC3=N2)cc1 (centres undefined) [tetramizole hydrochloride] | -0.177 |
| COc1cc2cc3c4cc(OC)c(OC)cc4cc[n+]3c(C)c2cc1OC [coralyne chloride] | -0.0533 |
| COc1cc(C(=O)O)cc(OC)c1O [syringic acid] | 0.365 |
| Cc1scc2c1N(C(=O)CN1CCN(C)CC1)c1ccccc1NC2=O [telenzepine hydrochloride] | -0.0157 |
| COC(=O)C[C@H]1C(C)(C)C(=O)[C@@H]2CC3=C4CC(=O)O[C@@H](c5ccoc5)[C@]4(C)CC[C@@H]3[C@@]1(C)C2=O [mexicanolide] | 0.19 |
| CC(=O)N[C@@H]([C@@H](O)[C@H](O)[C@H](O)CO)[C@@H](O)CC(=O)C(=O)O [aceneuramic acid] | 0.0618 |
| CC1(C)NC(=O)N(c2ccc([N+](=O)[O-])c(C(F)(F)F)c2)C1=O [nilutamide] | -0.212 |
| CC(C)(c1ccc(O)cc1)c1ccc(O)cc1 [bisphenol a] | 0.0708 |
| CCCCCCc1ccc(O)cc1O [hexylresorcinol] | 0.0853 |
| COC(=O)[C@@H]1[C@H]2C[C@H]3c4[nH]c5ccccc5c4CCN3C[C@@H]2CC[C@@H]1O [yohimbine hydrochloride] | -1.47 |
| C=C(C)[C@@H]1CC=C(C(=O)O)CC1 [perillic acid (-)] | 0.0543 |
| C[C@]12C=CC(=O)C=C1CC[C@@H]1[C@@H]2[C@@H](O)C[C@@]2(C)[C@H]1CC[C@]2(O)C(=O)COC(=O)CCC(=O)O [prednisolone hemisuccinate] | 0.0751 |

Random excerpt: 2 records from the list, in no set order.

| SMILES | log |
| --- | --- |
| C=C1c2cccc(O)c2C(=O)C2=C(O)[C@]3(O)C(=O)C(C(N)=O)=C(O)[C@@H](N(C)C)[C@@H]3[C@@H](O)[C@H]12 [methacycline hydrochloride] | -0.0128 |
| COc1cc2cc3c4cc(OC)c(OC)cc4cc[n+]3c(C)c2cc1OC [coralyne chloride] | -0.0533 |

Ordered by count of non-hydrogen atoms (low to high): part of the list above

| SMILES | log |
| --- | --- |
| C=C(C)[C@@H]1CC=C(C(=O)O)CC1 [perillic acid (-)] | 0.0543 |
| CCCNC(C)C(=O)Nc1ccccc1C (centres undefined) [prilocaine hydrochloride] | 0.156 |
| COC(=O)C[C@H]1C(C)(C)C(=O)[C@@H]2CC3=C4CC(=O)O[C@@H](c5ccoc5)[C@]4(C)CC[C@@H]3[C@@]1(C)C2=O [mexicanolide] | 0.19 |
